Measured values reported in PubChem BioAssay (Tox21).
Several values for one entry are separate records, joined by “and”; a condition that tells them apart may be missing. Equal values may be shown once. This list was built around the results that the source calls inconclusive (neither active nor inactive); the mix of calls is not that of the screen. Where the call is inconclusive, the potency comes from a doubtful curve fit. Activity calls are given as the source filed them. Calls follow the shape of the dose curve; as a rule, active = well fitted inhibition curve with a large enough effect in the repeat runs; inconclusive = weak or mixed curves; inactive = no such curve, though single readings can be large or run the other way.

Amino acid sequences for entries named in this document (tags omitted).
UniProt P10635, whole entry, looked up: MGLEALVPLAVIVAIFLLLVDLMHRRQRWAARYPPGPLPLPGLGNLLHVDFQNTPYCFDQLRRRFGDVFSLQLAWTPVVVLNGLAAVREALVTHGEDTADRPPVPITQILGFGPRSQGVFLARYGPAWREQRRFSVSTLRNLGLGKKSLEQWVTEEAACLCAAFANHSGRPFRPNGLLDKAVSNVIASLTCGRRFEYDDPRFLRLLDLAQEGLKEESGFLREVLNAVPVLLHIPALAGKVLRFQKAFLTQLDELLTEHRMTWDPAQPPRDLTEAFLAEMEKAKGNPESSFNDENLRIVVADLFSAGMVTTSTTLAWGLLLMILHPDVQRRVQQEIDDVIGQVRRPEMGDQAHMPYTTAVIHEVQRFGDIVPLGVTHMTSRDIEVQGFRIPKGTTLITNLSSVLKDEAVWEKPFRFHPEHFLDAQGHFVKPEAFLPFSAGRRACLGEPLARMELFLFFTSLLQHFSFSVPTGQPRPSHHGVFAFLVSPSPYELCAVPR

target: Cytochrome P450 2D6 (Homo sapiens) (UniProt P10635); experiment: Cytochrome P450 Family 2 Subfamily D Member 6 (CYP2D6) small molecule antagonists: luciferase reporter qHTS assay (AID 1671196); settings: P450-Glo CYP2D6 enzyme assay, luciferin luminescence, 1 h; series mostly up to 115 µM; also: nearly all actives have a fitted effect of over 50% in size
Excerpt: U.S. Tox21 Program National Center for Advancing Translational Sciences [NCATS] U.S. Environmental Protection Agency [EPA] National Institutes of Environmental Health Sciences [NIEHS] National Toxicology Program [NTP] U.S. Food and Drug Administration [FDA] Tox21 Assay Overview: Cytochrome P450 (CYP) enzymes are membrane-bound hemeproteins that play a key role in metabolism of drugs and xenobiotics. Evaluation of the effect of chemicals on CYP isozymes is useful to minimize the adverse drug reactions and toxicities in drug development process. Tox21 chemicals were tested for their effect on CYP enzyme activities by using P450-Glo (TM) screening systems (Promega Corporation, Madison, WI). These systems provide a luminescent method containing proluciferin substrates and are converted to luciferin products by CYP isozymes. The luciferin products formed are detected with a luciferin detection reagent, and the amount of light produced is proportional to CYP activity. P450-Glo (TM) CYP2D6 screening system (Catalog. No. V9890) was used to detect the compounds that interfere in CYP2D6 activity.
Tox21 Assay Protocol Summary: Two ul of enzyme-substrate mix was dispensed into medium binding white/solid 1536-well plates (Greiner Bio-One North America Inc., Monroe, NC) using a BioRaptr Flying Reagent Dispenser (FRD, Beckman Coulter, Brea, CA). […] The assay plates were incubated at room temperature for 10 min. Then 2 ul of NADPH regeneration solution was added to each well of the assay plates using an FRD and incubated at room temperature for 1 h. The reaction was stopped by adding 4 ul of detection reagent using an FRD and after 20 min incubation at room temperature the luminescence signal was measured using a ViewLux plate reader (Perkin Elmer, Shelton, CT). Data were expressed as relative luminescence units.
% is scaled to controls: 0 for no effect and ±100 for the full control effect; potency is read from the fitted curve at half-maximal effect.

Compound | Potency | activity change, negative = inhibition
CC1CC(=O)CC(C)(C)C1 (stereo not given) | inactive | 
O=C(O)c1cccc(O)c1 | inactive | 
O=C1C(c2[nH]c3ccccc3c2O)=Nc2ccccc21 | inconclusive: 70.8 µM [inhibitor, partial curve] and inactive | 
CCC(C)c1ccccc1 (stereo not given) | inactive | 
COc1cc(C(=O)OC(COCCC(C)C)CN2CCOCC2)cc(OC)c1OC (stereo not given) | inconclusive: 38.9 µM [inhibitor, partial curve] | 
COC(=O)[C@@H]1CC2=CC(=O)CC[C@]2(C)[C@@]23O[C@@H]2C[C@@]2(C)[C@@H](CC[C@@]24CCC(=O)O4)[C@H]13 | inconclusive: 21.9 µM [inhibitor, partial curve] | 
COc1ccccc1N1CCN(CC(O)COc2cc(OC)c(OC)c(OC)c2)CC1 (stereo not given) | inactive | 
CN(C(=O)C(Cl)Cl)c1ccc(OC(=O)c2ccco2)cc1 | inactive | 
CO/N=C(/C(=O)N[C@@H]1C(=O)N2C(C(=O)OCOC(=O)C(C)(C)C)=C(C)CS[C@H]12)c1csc(N)n1 | inconclusive: 38.9 µM [inhibitor, single point] | 
O=C(O)[C@@H]1CSCN1 | inconclusive: 38.9 µM [inhibitor, single point] | 
NC(=O)N[C@@H](CCC(=O)O)C(=O)O | inactive | 
CN(C1CCCCC1)S(=O)(=O)c1ccccc1N | inconclusive: 39.9 µM [inhibitor, partial curve, poor fit] | 
O=C(O)c1snc(Cl)c1Cl | inactive | 
OCCN1CN(CCO)CN(CCO)C1 | inconclusive: 39.9 µM [inhibitor, full curve, poor fit] | 
CCOC(=O)C(=O)c1csc(NC=O)n1 | inconclusive: 17.4 µM [inhibitor, partial curve] | 
COc1ccc(C)cc1N | active: 24.3 µM and active: 25.2 µM | 
CS(=O)(=O)O | inconclusive: 80.2 µM [inhibitor, single point] | 
CC/C(C)=N/O | inconclusive: 62.4 µM [inhibitor, partial curve] | 
NS(=O)(=O)c1ccc(Cl)c(S(N)(=O)=O)c1 | inconclusive: 21.9 µM [inhibitor, partial curve] | 
O=c1[nH]cccc1O | inconclusive: 44.8 µM [inhibitor, partial curve, poor fit] | 

Part of the list above, in CSV form:
Compound,Potency,"activity change, negative = inhibition"
CCC(C)c1ccccc1 (stereo not given),inactive,
COc1cc(C(=O)OC(COCCC(C)C)CN2CCOCC2)cc(OC)c1OC (stereo not given),"inconclusive: 38.9 µM [inhibitor, partial curve]",
COC(=O)[C@@H]1CC2=CC(=O)CC[C@]2(C)[C@@]23O[C@@H]2C[C@@]2(C)[C@@H](CC[C@@]24CCC(=O)O4)[C@H]13,"inconclusive: 21.9 µM [inhibitor, partial curve]",

More structures follow:

Compound | Potency | activity change, negative = inhibition
CCOC(=O)CN | inconclusive: 71 µM [inhibitor, partial curve] | 
CN(C)CCn1nnnc1SCC1=C(C(=O)O)N2C(=O)[C@@H](NC(=O)Cc3csc(N)n3)[C@H]2SC1 | inconclusive: 30.9 µM [inhibitor, partial curve, poor fit] | 
O=C1c2ccccc2C(=O)c2cc(O)ccc21 | inconclusive: 63.4 µM [inhibitor, partial curve] | 
SC1CCCC1 | inactive | 
CC(C=O)c1ccccc1 (stereo not given) | inactive | 
CCCCCCCCCC(C)=O | inconclusive: 36.2 µM [inhibitor, partial curve] | 
CCOc1ccc(NC(=O)OC(C)C)cc1OCC | inconclusive: 31.7 µM [inhibitor, partial curve] | 
N#Cc1ccc(C(c2ccc(C#N)cc2)n2cncn2)cc1 | inactive | 
CCOc1ccc2nc(S(N)(=O)=O)sc2c1 | inactive | 
CN(C)CC[C@@H](c1ccc(Br)cc1)c1ccccn1 | active: 3.89 µM | 
CN1CCN(c2c(F)cc3c(=O)c(C(=O)O)cn4c3c2OCN4C)CC1 |  | inactive: -1.32% [at 23.6 µM]
CC(C)(C)OC=O | inactive | 
CCOC(=O)OCC/C(SC(=O)OCC)=C(\C)N(C=O)Cc1cnc(C)nc1N | active: 2.45 µM | 
Cc1ccc(C(=O)c2ccc(CC(=O)O)n2C)cc1 | inactive | 
COc1ccc(/C=N/NC(=O)c2ccncc2)cc1OC | inconclusive: 30.9 µM [inhibitor, partial curve] | 
CC(C)C[C@@H]1[C@H](c2ccccc2)OC(=O)N1CCCN1CCCCCC1 | active: 0.436 µM | 
O=c1cc[nH]c(=S)[nH]1 | inconclusive: 50.6 µM [inhibitor, partial curve, poor fit] and inconclusive: 27.5 µM [inhibitor, partial curve, poor fit] | 
O=c1c2ccccc2nnn1CCl | active: 14.2 µM | 
CCCCOCCCC | inconclusive: 31.4 µM [inhibitor, full curve] | 
O=C(CCBr)N1CCN(C(=O)CCBr)CC1 | inconclusive: 15.5 µM [inhibitor, partial curve] | 
